From PubChem BioAssay AID248 (DTP/NCI, 2004)
The list shows only some results of the screen, not a fair sample: it gathers tests that were run many times, whatever their T/C, doses with no T/C, and many T/C values between a quarter and a half above the control. Other doses and runs of a compound stand elsewhere. T/C gives the treated animals as a percentage of the vehicle group. Some doses have a count of surviving animals in place of a T/C: the source holds a T/C of zero for them, seemingly a mark for toxic or unscored doses. Some survivor counts are full or nearly so, which does not show that the dose was tolerated: the source hardly ever lists a survival T/C far under the control, and the zero likely stands for such cases as well. Survivors were counted at the toxicity check, usually on the fifth day, unless a day is given; later deaths do not show. Schedule codes are those of the source, read here as Q, the interval in days (D) or hours (H), X, the number of doses. Some schedules carry Z or #; the key to these is not given. For survival time, this PubChem deposit counts one and a half times the control or more as active, and values a quarter to a half above the control carry no call in these data; other NCI protocols may use other cut-offs.

Test system: L1210 leukemia ip in BDF1 mice, survival T/C
Experiment: NCI In Vivo Anticancer Drug Screen. Data for tumor model L1210 Leukemia (intraperitoneal) in B6D2F1 (BDF1) mice
Settings: T/C endpoint: mean survival time, higher T/C = longer survival
[1] = dose: 100.0 mg/kg/injection, schedule: Q01DX009 (ip), vehicle: Klucel (hydroxypropylcellulose) (HPC)
[2] = dose: 400.0 mg/kg/injection, schedule: Q01DX009 (ip), vehicle: saline with Tween-80

CC1N=C(c2ccccc2)C2(c3ccccc3)C(C)N12 (stereo not drawn)
survivor count (dose: 400.0 mg/kg/injection, schedule: Q01DX001 (ip), vehicle: Klucel (hydroxypropylcellulose) (HPC)): 0 of 3

Cc1c2cnccc2c(C)c2c1c1ccccc1n2CC1CO1 (stereo not drawn)
T/C (dose: 9.37 mg/kg/injection, schedule: Q01DX009 (ip), vehicle: Klucel (hydroxypropylcellulose) (HPC)): 126 % of control
T/C (dose: 12.5 mg/kg/injection, schedule: Q01DX009 (ip), vehicle: Klucel (hydroxypropylcellulose) (HPC)): 130 % of control
T/C (dose: 12.5 mg/kg/injection, schedule: Q04DX003 (ip), vehicle: saline): 128 % of control
T/C (dose: 25.0 mg/kg/injection, schedule: Q01DX009 (ip), vehicle: saline with Tween-80): 128 % of control
survivor count (dose: 50.0 mg/kg/injection, schedule: Q01DX009 (ip), vehicle: Klucel (hydroxypropylcellulose) (HPC)): 6 of 6
T/C (dose: 50.0 mg/kg/injection, schedule: Q01DX009 (ip), vehicle: saline with Tween-80): 147 % of control
T/C (dose: 50.0 mg/kg/injection, schedule: Q04DX003 (ip), vehicle: saline): 126 % of control
survivor count [1]: 5 of 6
T/C (dose: 100.0 mg/kg/injection, schedule: Q04DX003 (ip), vehicle: saline): 138 % of control
survivor count (dose: 150.0 mg/kg/injection, schedule: Q04DX003 (ip), vehicle: saline): 6 of 6
survivor count (dose: 200.0 mg/kg/injection, schedule: Q01DX009 (ip), vehicle: Klucel (hydroxypropylcellulose) (HPC)): 5 of 6
survivor count (dose: 400.0 mg/kg/injection, schedule: Q01DX009 (ip), vehicle: Klucel (hydroxypropylcellulose) (HPC)): 3 of 6

C=CCNC(=O)C(Br)(CC)CC
survivor count (dose: 400.0 mg/kg/injection, schedule: Q01DX009 (ip), vehicle: saline): 2 of 6
survivor count (dose: 400.0 mg/kg/injection, schedule: Q04DX003 (ip), vehicle: saline): 6 of 6

S=c1nc[nH]c2c1ncn2CN1CCCCC1
survivor count (dose: 200.0 mg/kg/injection, schedule: Q01DX Z (ip), vehicle: carboxymethylcellulose (CMC)): 2 of 6

COc1ccc(C(O)(c2ccccc2)C(OC(=O)CCl)c2ccccc2)cc1 (stereo not drawn)
survivor count (dose: 100.0 mg/kg/injection, schedule: Q01DX009 (ip), vehicle: saline with Tween-80): 6 of 6
survivor count [2]: 6 of 6

O=NN(CCCl)C(=O)N[C@@H]1CCCC[C@H]1NC(=O)N(CCCl)N=O
T/C (dose: 3.75 mg/kg/injection, schedule: Q01DX001 (ip), vehicle: carboxymethylcellulose (CMC)): 135 % of control
T/C (dose: 7.5 mg/kg/injection, schedule: Q01DX001 (ip), vehicle: carboxymethylcellulose (CMC)): 133 % of control
T/C (dose: 10.0 mg/kg/injection, schedule: Q01DX001 (ip), vehicle: carboxymethylcellulose (CMC)): 132 % of control
T/C (dose: 15.0 mg/kg/injection, schedule: Q01DX001 (ip), vehicle: carboxymethylcellulose (CMC)): 144 % of control
survivor count (dose: 400.0 mg/kg/injection, schedule: Q01DX001 (ip), vehicle: saline): 6 of 6
survivor count (dose: 500.0 mg/kg/injection, schedule: Q01DX001 (ip), vehicle: saline): 6 of 6
survivor count (dose: 600.0 mg/kg/injection, schedule: Q01DX001 (ip), vehicle: saline): 6 of 6
survivor count (dose: 800.0 mg/kg/injection, schedule: Q01DX001 (ip), vehicle: saline): 6 of 6
survivor count (dose: 1000.0 mg/kg/injection, schedule: Q01DX001 (ip), vehicle: saline): 6 of 6

CNC[C@@H](O)c1ccc(O)c(O)c1
survivor count (dose: 1.8 mg/kg/injection, schedule: Q01DX001 (ip), vehicle: saline): 6 of 6
survivor count (dose: 2.7 mg/kg/injection, schedule: Q01DX001 (ip), vehicle: saline): 6 of 6
survivor count (dose: 5.4 mg/kg/injection, schedule: Q04DX003 (ip), vehicle: saline): 2 of 6

CCc1cccc(CC)c1N1C(=O)C2C(C1=O)C1(Cl)C(Cl)=C(Cl)C2(Cl)C1(Cl)Cl (stereo not drawn)
survivor count [1]: 3 of 6
survivor count (dose: 150.0 mg/kg/injection, schedule: Q01DX009 (ip), vehicle: Klucel (hydroxypropylcellulose) (HPC)): 0 of 6
survivor count (dose: 200.0 mg/kg/injection, schedule: Q04DX003 (ip), vehicle: Klucel (hydroxypropylcellulose) (HPC)): 0 of 6
survivor count (dose: 225.0 mg/kg/injection, schedule: Q01DX009 (ip), vehicle: Klucel (hydroxypropylcellulose) (HPC)): 0 of 6
survivor count (dose: 335.0 mg/kg/injection, schedule: Q01DX009 (ip), vehicle: Klucel (hydroxypropylcellulose) (HPC)): 0 of 6
survivor count (dose: 400.0 mg/kg/injection, schedule: Q04DX003 (ip), vehicle: Klucel (hydroxypropylcellulose) (HPC)): 0 of 6

CC(C)CC(NC(=O)c1ccccc1)C(N)=O (stereo not drawn)
survivor count [2]: 6 of 6

CCCC(C)C(=NC)Nc1ccc(Cl)c(Cl)c1 (stereo not drawn)
survivor count (dose: 25.0 mg/kg/injection, schedule: Q01DX Z (ip), vehicle: methylcellulose (MC)): 2 of 6
